Test [1] deals with T1, MBP-CTCF (zinc fingers 1-11, aa 269-579) (UniProt P49711).
T1 sequence: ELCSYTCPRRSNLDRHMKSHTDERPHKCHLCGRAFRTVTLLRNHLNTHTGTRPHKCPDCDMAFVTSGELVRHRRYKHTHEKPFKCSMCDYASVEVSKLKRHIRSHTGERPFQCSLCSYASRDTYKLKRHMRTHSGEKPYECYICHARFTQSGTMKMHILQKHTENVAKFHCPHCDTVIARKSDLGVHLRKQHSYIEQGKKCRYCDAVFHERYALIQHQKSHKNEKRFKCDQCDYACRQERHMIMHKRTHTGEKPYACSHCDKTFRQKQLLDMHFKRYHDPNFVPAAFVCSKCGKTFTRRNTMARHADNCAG
The test can be described thus: pull-down; MBP-CTCF (or MBP) immobilised on amylose beads, incubated with purified N-terminally Flag-tagged CSB, CSB-N or CSB-C at 4°C for 1 hour in PBS with 0.5% Triton X-100 and 10 μM ZnSO4; Coomassie-stained gel; both purified.

Sequences of proteins named here, by UniProt entry; tags and fusion partners are left off. A change or cut given only in a name is not applied to a line headed by its entry.
UniProt Q03468: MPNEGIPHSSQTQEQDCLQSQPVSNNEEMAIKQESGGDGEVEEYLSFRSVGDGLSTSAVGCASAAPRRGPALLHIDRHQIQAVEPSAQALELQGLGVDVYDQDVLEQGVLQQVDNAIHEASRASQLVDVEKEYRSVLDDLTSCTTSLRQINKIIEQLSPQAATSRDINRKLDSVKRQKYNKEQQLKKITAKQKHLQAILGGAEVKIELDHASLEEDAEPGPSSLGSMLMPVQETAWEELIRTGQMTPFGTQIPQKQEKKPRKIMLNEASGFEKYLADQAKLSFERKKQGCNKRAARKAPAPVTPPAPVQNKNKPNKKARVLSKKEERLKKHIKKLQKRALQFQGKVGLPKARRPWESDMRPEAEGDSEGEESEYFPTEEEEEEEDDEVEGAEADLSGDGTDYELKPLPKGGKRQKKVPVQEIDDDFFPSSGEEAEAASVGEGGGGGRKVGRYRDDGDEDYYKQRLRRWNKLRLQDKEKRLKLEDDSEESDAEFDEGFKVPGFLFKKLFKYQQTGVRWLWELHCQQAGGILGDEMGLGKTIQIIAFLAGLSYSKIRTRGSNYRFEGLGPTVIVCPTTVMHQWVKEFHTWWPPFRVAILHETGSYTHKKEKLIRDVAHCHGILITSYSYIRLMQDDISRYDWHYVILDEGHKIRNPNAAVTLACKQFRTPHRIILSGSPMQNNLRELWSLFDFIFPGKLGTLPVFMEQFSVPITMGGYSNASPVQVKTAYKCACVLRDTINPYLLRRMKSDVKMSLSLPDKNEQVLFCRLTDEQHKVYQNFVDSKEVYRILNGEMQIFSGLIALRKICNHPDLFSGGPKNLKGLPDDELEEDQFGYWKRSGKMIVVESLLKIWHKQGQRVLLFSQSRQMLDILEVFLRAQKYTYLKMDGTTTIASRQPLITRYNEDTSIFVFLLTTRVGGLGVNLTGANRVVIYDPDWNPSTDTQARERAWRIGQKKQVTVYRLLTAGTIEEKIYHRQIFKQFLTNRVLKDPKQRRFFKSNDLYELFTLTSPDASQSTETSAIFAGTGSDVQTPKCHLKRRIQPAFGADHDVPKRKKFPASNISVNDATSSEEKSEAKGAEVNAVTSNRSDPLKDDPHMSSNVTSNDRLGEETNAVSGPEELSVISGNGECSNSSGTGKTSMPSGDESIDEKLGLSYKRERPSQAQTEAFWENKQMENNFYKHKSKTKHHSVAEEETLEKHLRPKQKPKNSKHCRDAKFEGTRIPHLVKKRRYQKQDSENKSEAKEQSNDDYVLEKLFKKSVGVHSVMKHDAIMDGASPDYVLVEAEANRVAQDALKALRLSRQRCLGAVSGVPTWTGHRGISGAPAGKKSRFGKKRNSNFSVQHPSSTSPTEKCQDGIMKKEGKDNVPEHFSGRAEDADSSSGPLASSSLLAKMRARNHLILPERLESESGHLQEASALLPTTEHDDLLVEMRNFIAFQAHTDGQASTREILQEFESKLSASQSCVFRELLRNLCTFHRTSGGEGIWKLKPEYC

The target of a further test is T2, Flag-tagged CTCF (UniProt P49711).
T2 sequence: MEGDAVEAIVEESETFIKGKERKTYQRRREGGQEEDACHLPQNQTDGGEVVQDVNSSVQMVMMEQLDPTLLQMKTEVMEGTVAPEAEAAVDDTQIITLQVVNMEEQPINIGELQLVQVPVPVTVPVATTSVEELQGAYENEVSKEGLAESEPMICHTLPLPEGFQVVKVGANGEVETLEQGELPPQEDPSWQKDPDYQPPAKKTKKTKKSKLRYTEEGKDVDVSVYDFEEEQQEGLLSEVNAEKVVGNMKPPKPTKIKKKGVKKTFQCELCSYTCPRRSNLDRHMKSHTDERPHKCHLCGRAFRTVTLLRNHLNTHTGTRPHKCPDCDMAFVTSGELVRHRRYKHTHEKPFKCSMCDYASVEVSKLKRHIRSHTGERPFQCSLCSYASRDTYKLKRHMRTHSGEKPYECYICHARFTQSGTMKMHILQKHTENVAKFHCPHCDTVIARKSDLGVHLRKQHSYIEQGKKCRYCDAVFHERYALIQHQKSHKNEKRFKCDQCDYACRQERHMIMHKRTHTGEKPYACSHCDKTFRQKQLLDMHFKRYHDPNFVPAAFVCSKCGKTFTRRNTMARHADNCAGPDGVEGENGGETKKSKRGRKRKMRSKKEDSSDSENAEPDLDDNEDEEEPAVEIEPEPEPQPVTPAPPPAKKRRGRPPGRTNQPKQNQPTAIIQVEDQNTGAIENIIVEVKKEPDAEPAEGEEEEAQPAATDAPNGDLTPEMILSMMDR
In words: co-IP; anti-Flag immunoprecipitation from lysates of 293T cells transiently transfected with Flag-tagged CTCF, with or without a 1-h treatment with 100 μM menadione; western blot for CSB.

No constants are given. Whether binding was seen depends on the method and setting. For some of these results: In cells and extracts the contact can be indirect. Some results given as binding are weak or reduced against the parent protein; the word gives no strength. Tags and fused reporters may be left off the sequences shown.

For the substance “CSB-C (C-terminal 483 amino acids of CSB) (from UniProt Q03468 1011-1493) (domain or fragment)”, the binding entry in test [1] is “binds”.

Consider “Cockayne syndrome group B protein (CSB) (from UniProt Q03468 1-1493)”, for which the binding entry in the test with Flag-tagged CTCF is on record as “binds”. Consider “CSB-N (first 507 amino acids of CSB) (from UniProt Q03468 1-507) (domain or fragment)”, for which the binding entry in test [1] is on record as “no binding”. Same read-out and setting: under “Flag-tagged CSB (from UniProt Q03468 1-1493)” stands “binds”.
